“Also recorded” adds a separate entry of the source. At least one structure is not confirmed: it was looked up by name or label, or the drawing left a doubt.
Columns and labels:
Akt kinase in PC12 cells = assay: Immunodetection of activated Akt (Ser 473) in PC12 cells; assay type: cell-based, rat; details: LY 1 μM preincubation
Description: PC12 cells were deprived of serum for 24-48 hours, stimulated with TS, TS-F or LTR for 2, 5 or 10 minutes and immediately lysed with 2% SDS. In studies using the PI-3 kinase inhibitor, LY294002 (LY), cells were pre-treated with the inhibitor (1 μM) for 30 min prior to the addition of TS-F or TS. The proteins in the cell lysate were separated in SDS-10% polyacrylamide gels, transferred to nitrocellulose membrane (Bio-Rad) and the phosphorylated form of protein kinase Akt was detected with phospho-Akt (Ser 473) antibody (New England BioLabs, Beverly, Mass.), followed by alkaline phosphatase-conjugated secondary antibody (Promega, Madison, Wis.). Bands corresponding to phospho-Akt (60 kDa) were quantified using a scanning densitometer (Bio-Rad).

[1] = system: Akt kinase in human Schwann cells; assay: Immunodetection of activated Akt (Ser473) in Schwann cells; details: LY294002 30 minutes before CD 500 ng/ml
human Schwann cells = assay: Serum withdrawal-induced apoptosis of immortalized human Schwann cells (DAPI); assay type: cell-based; details: LY294002 added 30 minutes before CD 500 ng/ml
PC12 cells = assay: Reversal of TS-induced neuroprotection by PI-3 kinase inhibitors in PC12 cells; assay type: cell-based, rat
Description: Protection against apoptosis of PC12 cells in serum-free medium containing a test agent (agent N)(e.g., protection induced by TS, TS fragments, NGF or other growth factors), was calculated by the formula: 100%-[(apoptosis(%) of cells kept in RPMI containing test agent N÷apoptosis (%) of cells kept in RPMI)×100%]. Testing the effect of wortmannin (Sigma) and LY294002 (Sigma) in inhibiting the neuroprotection of TS was performed following the protocol described by others (Yao and Cooper, Science, 267:2003-2006 (1995); D'Mello et al., J. Neurosci 17:1548-1560 (1997)). In brief, PC12 cells were switched from growth medium to RPMI without and with TS or various other growth factors. After 24 hr, wortmannin and LY294002 were added to the cultures. After another 24 hrs, cells were examined for apoptosis by the DAPI assay, as above.

SMILES	inhibition of TS-induced Akt phosphorylation in PC12 cells (Akt kinase in PC12 cells; TS 100 ng/ml)	inhibition of TS-F-induced Akt phosphorylation in PC12 cells (Akt kinase in PC12 cells; TS-F 100 ng/ml)	inhibition of CD-induced Akt phosphorylation in Schwann cells [1]	inhibition of CD-induced Akt phosphorylation in Schwann cells ([1]; listed as Ly294002)	inhibition of TS/CD-induced survival of serum starved Schwann cells (human Schwann cells)	inhibition of TS/CD-induced survival of serum starved Schwann cells (human Schwann cells; listed as Ly294002)	reversal of protection by TS-F+CNTF in PC12 cells (PC12 cells; TS-F 5 ng/ml + CNTF 50 ng/ml)	reversal of survival-promoting activity of TS-F (or NGF) in PC12 cells (PC12 cells; inhibitor added after 24 hr in TS-F 100 ng/ml, viability 24 hours later by DAPI)
O=c1cc(N2CCOCC2)oc2c(-c3ccccc3)cccc12 [LY294002, reference compound]	prevents TS-induced serine phosphorylation of Akt kinase	completely blocked	inhibited	blocked CD-induced Akt activation	inhibited the protective activity of CD	inhibited TS-induced survival	–	–
COC[C@H]1OC(=O)c2coc3c2[C@@]1(C)C1=C(C3=O)[C@@H]2CCC(=O)[C@@]2(C)C[C@H]1OC(C)=O [wortmannin]	–	–	–	–	–	–	reversed protection	reduced neuronal viability in a dose-dependent manner; also recorded: reversal of the survival-promoting activity

Reference: patent US8114412B2, “T. cruzi-derived neurotrophic agents and methods of use therefor” (priority 1999, dated 2012)
